Measured values from the supplement of paper PMC10849652.
The list shows a part of the results.

Chains of the proteins cited; added tags and fusions are not shown. Lines headed by an entry give the natural chain unless they say otherwise; changes in a name come on top.
UniProt Q9H4E7, whole entry, looked up: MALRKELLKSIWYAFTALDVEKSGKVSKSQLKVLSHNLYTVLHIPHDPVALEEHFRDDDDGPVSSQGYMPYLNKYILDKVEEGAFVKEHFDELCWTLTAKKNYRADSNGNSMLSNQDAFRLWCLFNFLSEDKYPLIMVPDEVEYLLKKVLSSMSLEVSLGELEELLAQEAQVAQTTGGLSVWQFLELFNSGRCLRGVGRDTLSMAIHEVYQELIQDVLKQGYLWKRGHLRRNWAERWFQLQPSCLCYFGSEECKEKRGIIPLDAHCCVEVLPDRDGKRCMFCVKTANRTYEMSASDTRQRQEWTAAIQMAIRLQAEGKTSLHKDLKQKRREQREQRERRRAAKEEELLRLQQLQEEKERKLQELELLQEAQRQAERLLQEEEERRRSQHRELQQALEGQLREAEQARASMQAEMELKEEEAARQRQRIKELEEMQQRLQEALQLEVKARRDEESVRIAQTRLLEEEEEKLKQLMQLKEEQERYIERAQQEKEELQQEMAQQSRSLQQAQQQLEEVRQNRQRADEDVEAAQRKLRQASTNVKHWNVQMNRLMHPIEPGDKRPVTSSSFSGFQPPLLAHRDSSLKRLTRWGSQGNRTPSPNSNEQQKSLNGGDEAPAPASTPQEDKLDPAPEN
UniProt Q9UJW0, whole entry, looked up: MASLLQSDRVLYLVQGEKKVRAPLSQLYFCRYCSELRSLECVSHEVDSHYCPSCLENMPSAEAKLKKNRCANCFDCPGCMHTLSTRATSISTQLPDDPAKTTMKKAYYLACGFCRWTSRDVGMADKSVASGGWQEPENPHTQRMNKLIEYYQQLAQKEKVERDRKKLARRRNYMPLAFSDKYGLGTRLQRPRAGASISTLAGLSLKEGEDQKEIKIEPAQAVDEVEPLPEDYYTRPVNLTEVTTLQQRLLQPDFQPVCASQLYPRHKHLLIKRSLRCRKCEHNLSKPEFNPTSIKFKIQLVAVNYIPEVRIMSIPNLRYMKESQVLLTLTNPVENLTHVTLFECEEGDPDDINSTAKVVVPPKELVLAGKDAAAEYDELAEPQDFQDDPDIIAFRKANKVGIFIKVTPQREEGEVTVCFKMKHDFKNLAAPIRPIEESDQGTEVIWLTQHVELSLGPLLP
UniProt Q92841: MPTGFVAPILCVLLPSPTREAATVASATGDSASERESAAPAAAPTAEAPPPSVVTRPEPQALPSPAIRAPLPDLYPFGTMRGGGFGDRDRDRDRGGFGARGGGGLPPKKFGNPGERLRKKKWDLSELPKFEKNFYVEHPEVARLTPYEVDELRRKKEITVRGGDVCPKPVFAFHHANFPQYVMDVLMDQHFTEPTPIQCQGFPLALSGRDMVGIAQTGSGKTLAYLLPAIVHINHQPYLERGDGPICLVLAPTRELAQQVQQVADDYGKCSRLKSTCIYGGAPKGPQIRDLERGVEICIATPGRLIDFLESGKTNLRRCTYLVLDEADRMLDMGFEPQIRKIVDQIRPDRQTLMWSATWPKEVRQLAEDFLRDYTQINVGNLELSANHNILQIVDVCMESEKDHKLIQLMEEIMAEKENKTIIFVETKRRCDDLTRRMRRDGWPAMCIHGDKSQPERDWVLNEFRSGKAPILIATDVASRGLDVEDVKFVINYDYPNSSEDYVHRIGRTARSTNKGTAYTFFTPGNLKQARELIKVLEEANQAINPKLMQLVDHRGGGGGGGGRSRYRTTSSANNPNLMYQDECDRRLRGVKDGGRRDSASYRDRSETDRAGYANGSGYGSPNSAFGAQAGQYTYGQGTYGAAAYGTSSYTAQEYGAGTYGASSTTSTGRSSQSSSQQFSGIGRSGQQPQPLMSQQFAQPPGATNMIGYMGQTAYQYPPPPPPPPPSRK
UniProt Q7Z4W1: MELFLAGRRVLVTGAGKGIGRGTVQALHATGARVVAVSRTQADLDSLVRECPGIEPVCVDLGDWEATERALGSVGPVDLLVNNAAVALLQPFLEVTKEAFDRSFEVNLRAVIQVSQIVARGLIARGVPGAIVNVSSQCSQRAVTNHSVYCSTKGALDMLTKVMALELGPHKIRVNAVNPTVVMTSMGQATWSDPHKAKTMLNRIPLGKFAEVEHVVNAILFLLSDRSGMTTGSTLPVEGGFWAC
UniProt Q9NV06: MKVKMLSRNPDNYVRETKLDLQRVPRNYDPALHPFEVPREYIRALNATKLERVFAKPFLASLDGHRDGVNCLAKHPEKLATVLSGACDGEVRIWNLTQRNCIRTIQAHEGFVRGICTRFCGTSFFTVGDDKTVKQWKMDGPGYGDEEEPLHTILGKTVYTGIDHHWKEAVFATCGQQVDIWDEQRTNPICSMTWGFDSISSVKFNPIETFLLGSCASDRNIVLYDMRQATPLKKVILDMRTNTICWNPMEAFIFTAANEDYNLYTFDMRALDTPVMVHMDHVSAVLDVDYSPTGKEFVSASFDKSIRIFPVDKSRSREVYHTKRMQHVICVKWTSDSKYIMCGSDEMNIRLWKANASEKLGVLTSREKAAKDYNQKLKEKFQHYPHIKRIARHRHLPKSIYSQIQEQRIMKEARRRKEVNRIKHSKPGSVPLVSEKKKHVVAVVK
UniProt O00273: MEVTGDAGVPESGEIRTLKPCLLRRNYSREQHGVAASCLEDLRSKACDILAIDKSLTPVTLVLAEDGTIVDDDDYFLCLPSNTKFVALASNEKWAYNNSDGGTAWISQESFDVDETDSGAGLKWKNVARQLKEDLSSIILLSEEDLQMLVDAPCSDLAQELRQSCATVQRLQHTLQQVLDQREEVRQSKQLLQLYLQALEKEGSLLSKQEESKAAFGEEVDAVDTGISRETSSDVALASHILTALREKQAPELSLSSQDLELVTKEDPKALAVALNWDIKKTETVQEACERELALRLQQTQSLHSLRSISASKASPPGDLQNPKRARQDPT
UniProt Q7Z401: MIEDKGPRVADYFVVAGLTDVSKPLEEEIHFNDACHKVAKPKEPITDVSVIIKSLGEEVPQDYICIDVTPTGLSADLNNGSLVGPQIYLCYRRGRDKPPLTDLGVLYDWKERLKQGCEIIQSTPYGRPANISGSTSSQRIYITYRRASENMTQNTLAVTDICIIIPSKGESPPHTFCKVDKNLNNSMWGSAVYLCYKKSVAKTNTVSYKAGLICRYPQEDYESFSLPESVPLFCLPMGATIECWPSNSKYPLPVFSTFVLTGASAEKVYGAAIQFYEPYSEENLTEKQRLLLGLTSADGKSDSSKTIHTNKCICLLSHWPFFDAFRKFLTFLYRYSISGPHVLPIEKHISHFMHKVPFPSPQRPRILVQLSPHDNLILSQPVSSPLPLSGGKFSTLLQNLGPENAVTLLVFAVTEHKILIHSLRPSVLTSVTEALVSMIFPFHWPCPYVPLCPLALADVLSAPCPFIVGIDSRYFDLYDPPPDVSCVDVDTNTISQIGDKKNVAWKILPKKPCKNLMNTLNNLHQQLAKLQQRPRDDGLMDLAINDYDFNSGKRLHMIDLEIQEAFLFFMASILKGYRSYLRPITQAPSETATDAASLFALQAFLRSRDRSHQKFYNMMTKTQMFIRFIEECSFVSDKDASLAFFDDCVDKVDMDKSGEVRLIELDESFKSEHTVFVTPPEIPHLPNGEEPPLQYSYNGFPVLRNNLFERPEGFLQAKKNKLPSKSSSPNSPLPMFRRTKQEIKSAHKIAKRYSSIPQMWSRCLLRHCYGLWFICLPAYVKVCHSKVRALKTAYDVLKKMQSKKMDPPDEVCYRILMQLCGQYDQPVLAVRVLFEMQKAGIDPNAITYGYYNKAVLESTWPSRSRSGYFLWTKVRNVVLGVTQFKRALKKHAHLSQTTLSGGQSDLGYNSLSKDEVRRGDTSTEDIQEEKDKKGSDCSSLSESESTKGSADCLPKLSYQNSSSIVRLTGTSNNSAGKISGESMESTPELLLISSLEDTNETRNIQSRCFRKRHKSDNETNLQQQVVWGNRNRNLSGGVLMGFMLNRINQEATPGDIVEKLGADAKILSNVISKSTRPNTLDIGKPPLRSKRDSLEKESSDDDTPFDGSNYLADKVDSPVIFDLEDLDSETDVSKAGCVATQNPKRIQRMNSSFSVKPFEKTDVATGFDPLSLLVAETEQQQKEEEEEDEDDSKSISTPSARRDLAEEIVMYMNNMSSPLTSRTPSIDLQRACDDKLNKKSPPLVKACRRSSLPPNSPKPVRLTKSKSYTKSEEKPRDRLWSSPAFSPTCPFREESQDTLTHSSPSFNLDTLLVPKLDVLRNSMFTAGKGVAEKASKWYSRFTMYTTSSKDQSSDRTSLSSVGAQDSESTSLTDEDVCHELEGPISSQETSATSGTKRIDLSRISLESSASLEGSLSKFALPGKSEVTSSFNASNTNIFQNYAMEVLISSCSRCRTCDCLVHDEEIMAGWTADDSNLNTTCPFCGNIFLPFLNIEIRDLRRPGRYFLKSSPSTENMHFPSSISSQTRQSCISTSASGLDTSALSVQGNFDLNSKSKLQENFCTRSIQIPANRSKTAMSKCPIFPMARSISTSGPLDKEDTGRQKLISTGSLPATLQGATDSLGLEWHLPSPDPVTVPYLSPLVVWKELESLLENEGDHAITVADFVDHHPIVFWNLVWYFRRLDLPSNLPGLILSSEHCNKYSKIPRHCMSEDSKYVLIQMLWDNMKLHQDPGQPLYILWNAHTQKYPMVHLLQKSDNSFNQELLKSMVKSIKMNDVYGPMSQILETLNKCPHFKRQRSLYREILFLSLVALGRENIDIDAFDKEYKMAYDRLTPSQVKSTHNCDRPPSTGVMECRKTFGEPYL
UniProt P35659: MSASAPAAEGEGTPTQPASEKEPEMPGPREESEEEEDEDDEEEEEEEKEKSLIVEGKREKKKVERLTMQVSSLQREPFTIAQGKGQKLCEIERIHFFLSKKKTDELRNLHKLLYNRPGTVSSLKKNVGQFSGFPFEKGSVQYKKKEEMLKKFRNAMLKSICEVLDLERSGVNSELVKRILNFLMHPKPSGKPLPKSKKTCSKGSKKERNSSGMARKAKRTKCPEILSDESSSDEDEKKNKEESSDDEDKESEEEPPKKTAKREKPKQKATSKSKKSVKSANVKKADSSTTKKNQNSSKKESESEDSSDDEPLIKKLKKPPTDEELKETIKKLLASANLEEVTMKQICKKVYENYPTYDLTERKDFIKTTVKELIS
UniProt P30046: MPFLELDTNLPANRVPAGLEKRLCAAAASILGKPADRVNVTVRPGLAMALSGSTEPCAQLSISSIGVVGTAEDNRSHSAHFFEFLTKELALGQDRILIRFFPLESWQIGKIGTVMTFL
UniProt Q5T1V6: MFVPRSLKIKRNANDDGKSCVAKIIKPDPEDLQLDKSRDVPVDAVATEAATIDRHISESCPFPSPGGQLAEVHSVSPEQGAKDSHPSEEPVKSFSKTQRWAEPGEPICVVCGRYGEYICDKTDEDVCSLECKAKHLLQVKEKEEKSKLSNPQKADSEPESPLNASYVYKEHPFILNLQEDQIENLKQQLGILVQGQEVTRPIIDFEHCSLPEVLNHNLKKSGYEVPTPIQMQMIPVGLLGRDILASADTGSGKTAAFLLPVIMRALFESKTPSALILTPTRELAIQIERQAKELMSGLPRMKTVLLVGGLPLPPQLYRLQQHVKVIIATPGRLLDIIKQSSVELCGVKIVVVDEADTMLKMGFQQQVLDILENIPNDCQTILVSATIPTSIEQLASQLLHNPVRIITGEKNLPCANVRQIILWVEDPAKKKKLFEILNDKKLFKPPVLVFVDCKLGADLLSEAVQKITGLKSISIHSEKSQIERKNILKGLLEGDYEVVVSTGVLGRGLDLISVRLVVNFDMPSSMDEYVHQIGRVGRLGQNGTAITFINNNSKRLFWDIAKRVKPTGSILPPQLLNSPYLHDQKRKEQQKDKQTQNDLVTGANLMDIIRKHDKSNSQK
UniProt Q6P3S1: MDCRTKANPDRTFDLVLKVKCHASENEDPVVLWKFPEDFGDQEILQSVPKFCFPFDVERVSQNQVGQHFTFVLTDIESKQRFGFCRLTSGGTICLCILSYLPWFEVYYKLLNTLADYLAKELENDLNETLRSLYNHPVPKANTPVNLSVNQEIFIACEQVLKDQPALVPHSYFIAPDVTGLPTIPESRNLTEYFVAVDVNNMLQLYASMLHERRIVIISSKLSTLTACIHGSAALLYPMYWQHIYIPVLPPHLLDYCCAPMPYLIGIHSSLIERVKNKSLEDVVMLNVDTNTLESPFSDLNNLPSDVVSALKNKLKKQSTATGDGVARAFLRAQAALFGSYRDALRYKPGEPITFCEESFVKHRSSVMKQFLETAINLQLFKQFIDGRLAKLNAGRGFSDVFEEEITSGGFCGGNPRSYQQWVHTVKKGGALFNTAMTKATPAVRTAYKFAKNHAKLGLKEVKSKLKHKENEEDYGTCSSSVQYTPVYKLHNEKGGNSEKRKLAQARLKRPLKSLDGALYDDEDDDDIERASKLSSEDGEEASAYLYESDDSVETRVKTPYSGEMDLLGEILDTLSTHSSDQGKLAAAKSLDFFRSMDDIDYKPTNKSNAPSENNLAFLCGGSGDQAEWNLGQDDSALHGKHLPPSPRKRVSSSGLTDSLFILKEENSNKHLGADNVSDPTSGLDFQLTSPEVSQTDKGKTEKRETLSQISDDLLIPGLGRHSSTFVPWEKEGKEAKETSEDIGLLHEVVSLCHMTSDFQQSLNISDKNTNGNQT

Compound: Cc1ncc(-c2ccnc(Nc3ccc(S(C)(=O)=O)cc3)n2)n1C(C)C
Assay: log2 fold change, soluble protein after heating vs DMSO (PISA); higher = thermal stabilisation; K562 lysate, 10 uM; active = over 0.2 and 3.5 SD of the protein, either way, in both replicates (recomputed)
Outline: (§1)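 Dounce homogenisation of K562 pellets in PBS pH 7.4 with 1 mM MgCl2 produced a crude extract, used at 1 mg/mL protein. Exposure to 10 μM compound lasted 30 min, and aliquots were then heated for 3 min across 48°C-58°C, pooled and brought to 0.5% NP-40 at 4°C. The supernatant after 21,000xg for 90 min was quantified by TMTpro 16plex LC-MS/MS with channel sums equalised. Duplicate values are given as log-two fold change in thermal stability relative to solvent controls.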

log2 fold change, inactive:
CYP24A1 (UniProt Q07973) 0.015
DAGLB (UniProt Q8NCG7) -0.158
DDX3X (UniProt O00571) -0.004
DDB1 (UniProt Q16531) -0.007
DEF6 (UniProt Q9H4E7) 0.033
DDAH2 (UniProt O95865) -0.051
DECR2 (UniProt Q9NUI1) 0.05
DDX18 (UniProt Q9NVP1) 0.001
DCTN4 (UniProt Q9UJW0) 0.027
DCTD isoform 2 (UniProt P32321) 0.017
DDX56 (UniProt Q9NY93) 0.016
DDX17 (UniProt Q92841) -0.03
DCXR (UniProt Q7Z4W1) 0
DCTN2 isoform 3 (UniProt Q13561) -0.032
DCP2 (UniProt Q8IU60) 0.032
DCAF11 (UniProt Q8TEB1) 0.04
DENND6A (UniProt Q8IWF6) 0.017
DCAF13 (UniProt Q9NV06) -0.018
DCAF15 (UniProt Q66K64) 0
DCAF4L2 (UniProt Q8NA75) -0.151
DCTN2 (UniProt Q13561) 0.067
DAZAP1 (UniProt Q96EP5) 0.044
DFFA isoform 2 (UniProt O00273) 0.09
DCUN1D5 (UniProt Q9BTE7) 0.01
DENND4A isoform 2 (UniProt Q7Z401) 0.023
DEK (UniProt P35659) 0.007
DCTN3 (UniProt O75935) 0.033
DAG1 (UniProt Q14118) 0.04
DENND4C (UniProt Q5VZ89) 0.047
DDT (UniProt P30046) -0.026
DDX59 (UniProt Q5T1V6) -0.005
DENND1B (UniProt Q6P3S1) -0.05

Compound: Cn1cc(-c2ccc3c(c2)CCN3C(=O)Cc2cccc(C(F)(F)F)c2)c2c(N)ncnc21
Assay: as above
Outline: as §1

log2 fold change, inactive:
CYP24A1 (UniProt Q07973) 0.008
DAGLB (UniProt Q8NCG7) 0.036
DDX3X (UniProt O00571) 0.086
DDB1 (UniProt Q16531) 0.004
DEF6 (UniProt Q9H4E7) 0.006
DDAH2 (UniProt O95865) -0.016
DECR2 (UniProt Q9NUI1) 0.033
DDX18 (UniProt Q9NVP1) 0.019
DCTN4 (UniProt Q9UJW0) -0.02
DCTD isoform 2 (UniProt P32321) 0.008
DDX56 (UniProt Q9NY93) -0.014
DDX17 (UniProt Q92841) 0.01
DCXR (UniProt Q7Z4W1) 0.019
DCTN2 isoform 3 (UniProt Q13561) 0.019
DCP2 (UniProt Q8IU60) -0.018
DCAF11 (UniProt Q8TEB1) -0.001
DENND6A (UniProt Q8IWF6) 0.095
DCAF13 (UniProt Q9NV06) 0.031
DCAF15 (UniProt Q66K64) 0.072
DCAF4L2 (UniProt Q8NA75) -0.1
DCTN2 (UniProt Q13561) -0.133
DAZAP1 (UniProt Q96EP5) -0.016
DFFA isoform 2 (UniProt O00273) 0.003
DCUN1D5 (UniProt Q9BTE7) 0.002
DENND4A isoform 2 (UniProt Q7Z401) 0.008
DEK (UniProt P35659) 0.011
DCTN3 (UniProt O75935) 0.07
DAG1 (UniProt Q14118) -0.051
DENND4C (UniProt Q5VZ89) 0.029
DDT (UniProt P30046) -0.031
DDX59 (UniProt Q5T1V6) -0.013
DENND1B (UniProt Q6P3S1) -0.09

Compound: Cn1cc(CNCC2CCN(c3ncc(C(=O)NO)cn3)CC2)c2ccccc21 [quisinostat]
Assay: as above
Outline: as §1

log2 fold change, inactive:
CYP24A1 (UniProt Q07973) -0.33
DAGLB (UniProt Q8NCG7) 0.025
DDX3X (UniProt O00571) -0.167
DDB1 (UniProt Q16531) -0.004
DEF6 (UniProt Q9H4E7) -0.044
DDAH2 (UniProt O95865) 0.041
DECR2 (UniProt Q9NUI1) 0.035
DDX18 (UniProt Q9NVP1) 0.009
DCTN4 (UniProt Q9UJW0) 0.032
DCTD isoform 2 (UniProt P32321) -0.019
DDX56 (UniProt Q9NY93) -0.053
DDX17 (UniProt Q92841) 0.038
DCXR (UniProt Q7Z4W1) 0.019
DCTN2 isoform 3 (UniProt Q13561) -0.008
DCP2 (UniProt Q8IU60) -0.094
DCAF11 (UniProt Q8TEB1) -0.054
DENND6A (UniProt Q8IWF6) -0.084
DCAF13 (UniProt Q9NV06) -0.011
DCAF15 (UniProt Q66K64) 0.022
DCAF4L2 (UniProt Q8NA75) 0.142
DCTN2 (UniProt Q13561) -0.007
DAZAP1 (UniProt Q96EP5) 0.118
DFFA isoform 2 (UniProt O00273) -0.013
DCUN1D5 (UniProt Q9BTE7) -0.097
DENND4A isoform 2 (UniProt Q7Z401) -0.083
DEK (UniProt P35659) 0.008
DCTN3 (UniProt O75935) 0.017
DAG1 (UniProt Q14118) -0.052
DENND4C (UniProt Q5VZ89) -0.017
DDT (UniProt P30046) 0.026
DDX59 (UniProt Q5T1V6) 0.018
DENND1B (UniProt Q6P3S1) -0.16
